Test results: PubChem BioAssay AID651768 (National Center for Advancing Translational Sciences (NCATS), 2012)
Among all 360,000 compounds or so, about 1,700 (0.47%) were called active. This list was built around the results that the source calls inconclusive (neither active nor inactive); the mix of calls is not that of the screen. Calls follow the shape of the dose curve; as a rule, active = well fitted inhibition curve with a large enough effect; inconclusive = small, poorly fitted or top-dose-only effect; inactive = no such curve, though single readings can be large or run the other way. Potencies of inconclusive entries are doubtful fits and often do not repeat.

Amino acid sequences for entries named in this document (tags omitted).
UniProt Q14191, whole entry, looked up: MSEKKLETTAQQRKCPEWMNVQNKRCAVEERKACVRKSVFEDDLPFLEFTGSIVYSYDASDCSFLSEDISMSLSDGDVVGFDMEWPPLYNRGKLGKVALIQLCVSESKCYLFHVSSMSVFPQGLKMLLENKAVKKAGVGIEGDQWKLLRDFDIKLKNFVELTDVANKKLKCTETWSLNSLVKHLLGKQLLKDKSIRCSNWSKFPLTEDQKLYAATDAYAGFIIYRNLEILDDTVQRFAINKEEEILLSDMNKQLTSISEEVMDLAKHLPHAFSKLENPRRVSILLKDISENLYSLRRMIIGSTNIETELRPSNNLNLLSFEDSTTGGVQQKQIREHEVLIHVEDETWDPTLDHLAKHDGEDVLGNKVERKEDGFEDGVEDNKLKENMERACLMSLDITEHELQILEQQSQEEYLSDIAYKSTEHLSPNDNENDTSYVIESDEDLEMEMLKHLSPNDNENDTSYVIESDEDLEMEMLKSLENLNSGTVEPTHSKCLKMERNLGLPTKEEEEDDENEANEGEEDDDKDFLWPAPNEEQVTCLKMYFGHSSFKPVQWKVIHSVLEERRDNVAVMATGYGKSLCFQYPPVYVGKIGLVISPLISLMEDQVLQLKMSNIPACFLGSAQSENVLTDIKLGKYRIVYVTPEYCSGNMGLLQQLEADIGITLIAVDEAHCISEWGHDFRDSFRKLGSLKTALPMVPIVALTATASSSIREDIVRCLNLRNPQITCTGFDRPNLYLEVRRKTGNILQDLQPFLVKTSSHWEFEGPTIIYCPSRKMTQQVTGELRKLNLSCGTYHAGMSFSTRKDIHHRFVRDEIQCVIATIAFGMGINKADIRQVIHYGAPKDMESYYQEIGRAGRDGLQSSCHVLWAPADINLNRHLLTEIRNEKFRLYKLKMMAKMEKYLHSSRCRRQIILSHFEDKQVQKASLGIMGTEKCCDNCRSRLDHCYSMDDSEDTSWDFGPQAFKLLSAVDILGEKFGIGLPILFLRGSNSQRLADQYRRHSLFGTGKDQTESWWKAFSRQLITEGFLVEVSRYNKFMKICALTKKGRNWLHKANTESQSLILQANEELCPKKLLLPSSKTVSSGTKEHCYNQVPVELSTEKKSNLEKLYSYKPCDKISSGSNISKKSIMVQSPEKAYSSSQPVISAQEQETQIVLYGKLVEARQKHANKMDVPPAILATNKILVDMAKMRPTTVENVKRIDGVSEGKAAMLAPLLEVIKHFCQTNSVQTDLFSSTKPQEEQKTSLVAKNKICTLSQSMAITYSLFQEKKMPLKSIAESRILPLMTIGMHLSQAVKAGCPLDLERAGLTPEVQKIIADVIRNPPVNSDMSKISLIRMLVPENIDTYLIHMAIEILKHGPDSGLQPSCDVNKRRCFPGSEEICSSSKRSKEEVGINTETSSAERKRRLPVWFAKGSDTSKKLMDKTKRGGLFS

Target: Bifunctional 3'-5' exonuclease/ATP-dependent helicase WRN (Homo sapiens) (UniProt Q14191)
Assay: qHTS for Inhibitors of WRN Helicase; also: nearly all actives have a fitted effect of over 55% in size
Settings: WRN helicase unwinding, fluorescent forked duplex, kinetic; activity change, negative = inhibition: at 114 µM (top of the series) unless noted
Summary of the method: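 Screening of the MLSMR collection measured strand separation of a quenched forked DNA duplex (100 nM) by 20 nM WRN with 2 mM ATP, all final. Compounds were preincubated with enzyme 15 min at room temperature.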
% is scaled to controls: 0 for no effect and ±100 for the full control effect; potency is read from the fitted curve at half-maximal effect.

Q: `CC1=CC(C)(C)N=C(NC#N)N1` was tested. Which “activity change, negative = inhibition” value did it give?
A: inactive: 0.478%

Q: With `N#C/C(=C\c1ccc(-c2ccc([N+](=O)[O-])cc2)o1)C(=O)Nc1nc(-c2cccs2)cs1` as the molecule, how does the “activity change, negative = inhibition” value read?
A: inactive: -14% [at 57.1 µM]

Q: `Cc1c(Nc2cc(Cl)c3nonc3c2[N+](=O)[O-])c(=O)n(-c2ccccc2)n1C` was tested. Which “activity change, negative = inhibition” value did it give?
A: inactive: -10.2% [at 57.1 µM]

Q: How did the “activity change, negative = inhibition” value turn out when `O=C(O)CCC(=O)c1ccc2c(c1)OCCO2` was run?
A: inactive: 4.65%

Q: `CC(C)c1ccccc1-n1c(SCC(=O)c2ccc3c(c2)NC(=O)CO3)nc2ccccc2c1=O` was tested. Which Potency did it give?
A: inconclusive: 89.1 µM [inhibitor, single point]

Q: Which Potency does the source give for `CCOC(=O)C(NS(=O)(=O)c1ccccc1)(C(F)(F)F)P(=O)(OCC(C)C)OCC(C)C` (configuration not stated) here?
A: inconclusive: 35.5 µM [inhibitor, partial curve]

Q: How did the Potency turn out when `O=C(Cc1c(Cl)cccc1Cl)Nc1cccc(S(=O)(=O)N2CCOCC2)c1` was run?
A: inconclusive: 89.1 µM [inhibitor, single point]

Q: How did the Potency turn out when `Cc1ccc(NC(=O)CCNS(=O)(=O)c2ccc3c(c2)oc(=O)n3C)cc1` was run?
A: inconclusive: 50.1 µM [inhibitor, partial curve]

Q: `CC(=O)Nc1cccc(Oc2nc(C)cc(C)c2C#N)c1` was tested. Which “activity change, negative = inhibition” value did it give?
A: inactive: 0.263%

Q: How did the Potency turn out when `O=c1[nH]c(C2CCN(S(=O)(=O)c3ccc4c(c3)OCCO4)CC2)nc2c1nnn2Cc1ccccc1` was run?
A: inconclusive: 22.4 µM [inhibitor, single point]

Q: For `CCOC(=O)C1=C(COC(=O)[C@@H]2CCCN2S(=O)(=O)c2ccc(C)cc2)NC(=O)NC1C` (some centres not stated), which Potency is on record?
A: inconclusive: 89.1 µM [inhibitor, single point]

Q: `CC(C)CC(=O)Nc1cccc(NC(=O)c2ccccc2Cl)c1` was tested. Which Potency did it give?
A: inconclusive: 56.2 µM [inhibitor, partial curve]

Q: For `CCN(CC(=O)Nc1c(F)cccc1F)C(=O)c1ccc(S(=O)(=O)N2CCCC2)cc1`, which Potency is on record?
A: inconclusive: 39.8 µM [inhibitor, single point]

Q: With `Cc1cccc(OC(C)C(=O)N2CCN(Cc3ccc4c(c3)OCO4)CC2)c1` (configuration not stated) as the molecule, how does the Potency read?
A: inconclusive: 39.8 µM [inhibitor, partial curve]

Q: With `COC(=O)Nc1ccc(S(=O)(=O)NNC(=O)c2c(O)c3ccccc3n(C)c2=O)cc1` as the molecule, how does the “activity change, negative = inhibition” value read?
A: inactive: 8.93%

Q: For `COc1ccc(C(=O)OCc2ccccc2F)cc1S(=O)(=O)N1CCCC1`, which Potency is on record?
A: inconclusive: 20 µM [inhibitor, single point]

Q: How did the Potency turn out when `Cc1ccc(C(=O)/C=C\C(=O)c2ccc(C)cc2)cc1` was run?
A: inconclusive: 50.1 µM [inhibitor, partial curve]

Q: How did the activity change, negative = inhibition turn out when `O=C(O)/C(=C\c1ccco1)NC(=O)c1ccc(Br)o1` was run?
A: inactive: -15.7% [at 11.6 µM]

Q: Which Potency does the source give for `CCOC(=O)c1ccc(S(=O)(=O)Nc2cc(S(=O)(=O)Nc3ccc(OC)cc3)ccc2O)cc1` here?
A: inconclusive: 89.1 µM [inhibitor, partial curve]

Q: Which Potency does the source give for `O/C(=C\c1nc2ccccc2nc1/C=C(\O)c1ccccc1)c1ccccc1` here?
A: active: 44.7 µM

Q: Which Potency does the source give for `O=C(Nc1ccccc1F)c1ccc2nc(N3C(=O)CCC3=O)sc2c1` here?
A: inconclusive: 50.1 µM [inhibitor, partial curve]

Q: `O=C(CNC(=O)c1cccc(S(=O)(=O)N2CCc3ccccc32)c1)Nc1ccccc1Br` was tested. Which “activity change, negative = inhibition” value did it give?
A: inactive: 0.252%

Q: `Cc1ccc(S(=O)(=O)NCCN=Cc2ccc(N(C)C)cc2)cc1` was tested. Which Potency did it give?
A: inconclusive: 89.1 µM [inhibitor, single point]

Q: Which Potency does the source give for `Cc1cccc2cc(C(c3nnnn3C(C)(C)C)N(Cc3ccco3)CC3CCCO3)c(=O)[nH]c12` (configuration not stated) here?
A: active: 1.68 µM

Q: Which Potency does the source give for `Cc1ccccc1NC(=O)/C(C#N)=C/c1ccc(-c2ccc(Cl)c(C(=O)O)c2)o1` here?
A: inconclusive: 22.4 µM [inhibitor, single point]

Q: With `Cc1cc(C)nc(SCC(=O)Nc2ccc(S(=O)(=O)Nc3cc(C)on3)cc2)n1` as the molecule, how does the Potency read?
A: inconclusive: 79.4 µM [inhibitor, single point]

Q: `Cn1cc(Br)c(C(=O)NNC(=O)c2ccccc2)n1` was tested. Which Potency did it give?
A: inconclusive: 25.1 µM [inhibitor, single point]

Q: For `CCn1c(N)c(C(=O)NCc2ccc3c(c2)OCO3)sc1=S`, which “activity change, negative = inhibition” value is on record?
A: inactive: -8.08%

Q: How did the Potency turn out when `COC/C=C/C1=CC2=CC(=O)C(C)(OC(=O)C3CCCC3)C(=O)C2=CO1` (configuration not stated) was run?
A: active: 79.4 µM

Q: `O=C(N/N=C/c1ccc(OC(=O)c2ccccc2Cl)cc1)c1cc(O)cc(O)c1` was tested. Which Potency did it give?
A: active: 12.6 µM

Q: With `COc1ccc(-n2c(O)c(/C=N/NS(=O)(=O)c3ccc(C)cc3)c3ccccc3c2=O)cc1OC` as the molecule, how does the Potency read?
A: active: 39.8 µM

Q: How did the Potency turn out when `CCCOc1ccc(/C=c2\sc3nc(-c4ccco4)nn3c2=O)cc1OCC` was run?
A: inconclusive: 50.1 µM [inhibitor, partial curve]

Q: Which Potency does the source give for `COc1cc(N)c(Cl)cc1C(=O)OCC(=O)NCC1CCCO1` (configuration not stated) here?
A: inconclusive: 44.7 µM [inhibitor, partial curve]

Q: `O=C(Cc1ccc(Cl)cc1)N/N=C/c1ccc(O)c(O)c1` was tested. Which “activity change, negative = inhibition” value did it give?
A: inactive: -18.8%

Q: With `Cc1cc(C)c2c(=O)n(CC(=O)Nc3cccc(Cl)c3C)sc2n1` as the molecule, how does the “activity change, negative = inhibition” value read?
A: inactive: 1.7%

Q: `COc1ccc(CN2C(=O)Cc3c2nc(N)c2c(N)nc(N4CCOCC4)c(C#N)c32)cc1` was tested. Which “activity change, negative = inhibition” value did it give?
A: inactive: 8.19%

Q: Which Potency does the source give for `O=C(Nc1nc(-c2ccco2)c(-c2ccco2)s1)C1CC(=O)N(c2ccc3c(c2)OCCO3)C1` (configuration not stated) here?
A: active: 12.6 µM

Q: `COCCN(C(=O)c1cc(-c2ccco2)nc2ccccc12)c1c(N)n(Cc2ccccc2)c(=O)[nH]c1=O` was tested. Which Potency did it give?
A: inconclusive: 56.2 µM [inhibitor, partial curve]

Q: For `Cn1c(N)c(C(=O)COC(=O)CC(NC(=O)c2ccccc2Cl)c2ccccc2)c(=O)n(C)c1=O` (configuration not stated), which “activity change, negative = inhibition” value is on record?
A: inactive: -4.45%

Q: With `CC(C)N1C(=O)/C(=C/c2nc3ccccc3c(=O)n2-c2ccccc2)c2ccccc21` as the molecule, how does the Potency read?
A: inconclusive: 100 µM [inhibitor, partial curve, poor fit]

Q: Which Potency does the source give for `COCCn1c(SCC(=O)N2CCC(C)CC2)nc2c(c1=O)SCC2` here?
A: inconclusive: 89.1 µM [inhibitor, single point]

Q: For `NS(=O)(=O)c1cccc(NC(=O)c2ccc3nc[nH]c3c2)c1`, which Potency is on record?
A: inconclusive: 50.1 µM [inhibitor, partial curve]

Q: `CSc1ccc(C2C(C#N)=C(N)Oc3c2ccc(=O)c2c(C)oc(C)c32)cc1` (configuration not stated) was tested. Which Potency did it give?
A: inconclusive: 56.2 µM [inhibitor, partial curve, poor fit]

Q: `CCOC(=O)CSc1nnc(NC(=O)CN2CCN(C=O)CC2)s1` was tested. Which “activity change, negative = inhibition” value did it give?
A: inactive: 1%

Q: How did the “activity change, negative = inhibition” value turn out when `Clc1ccc(Nc2nc(-c3ccncc3)cs2)cc1` was run?
A: inactive: -17.9%

Q: With `C=C(C)COc1ccc2oc(C)c(C(=O)OCCOC)c2c1` as the molecule, how does the “activity change, negative = inhibition” value read?
A: inactive: 3.66%

Q: How did the Potency turn out when `CCOc1ccc(NC(=O)CCC(=O)NNC(=O)NC2CCCCC2)cc1` was run?
A: inconclusive: 79.4 µM [inhibitor, single point]

Q: Which Potency does the source give for `O=C(Sc1ccc(Cl)cc1)c1ccccn1` here?
A: inconclusive: 50.1 µM [inhibitor, partial curve]

Q: With `COc1ccccc1-n1c(SCC(=O)N2CCOCC2)nc2ccccc2c1=O` as the molecule, how does the “activity change, negative = inhibition” value read?
A: inactive: 2.94%

Q: `O=c1cc(-c2ccccc2)oc2ccc(Cl)cc12` was tested. Which “activity change, negative = inhibition” value did it give?
A: inactive: -4.44%

Q: How did the Potency turn out when `CCS(=O)(=O)Nc1ccc(C(=O)NCCSc2ccccc2)cc1` was run?
A: inconclusive: 10 µM [inhibitor, full curve, poor fit]

Q: With `N#CCn1cnc2sc(-c3ccccc3)cc2c1=O` as the molecule, how does the activity change, negative = inhibition read?
A: inactive: -10.9% [at 11.6 µM]

Q: For `CCCCNCCOCCOc1ccccc1-c1ccccc1`, which Potency is on record?
A: inconclusive: 39.8 µM [inhibitor, single point]

Q: `C=CCOc1ccc(C(c2c(C(=O)O)[nH]c3ccccc23)c2c(C(=O)O)[nH]c3ccccc23)cc1` was tested. Which Potency did it give?
A: inconclusive: 56.2 µM [inhibitor, partial curve]

Q: `O=C(OCc1c(F)cccc1Cl)c1cccnc1Cl` was tested. Which “activity change, negative = inhibition” value did it give?
A: inactive: -9.74%

Q: Which “activity change, negative = inhibition” value does the source give for `CNc1sc(C(=O)c2cccs2)c(N)c1-c1nc2ccccc2s1` here?
A: inactive: -27.8%

Q: For `CCN1C=C(Cc2ccccc2C)C2=C(C1)C(c1ccccc1C)C(C#N)=C(N)O2` (configuration not stated), which activity change, negative = inhibition is on record?
A: inconclusive: -48.7% [inhibitor] [at 57.1 µM]

Q: Which “activity change, negative = inhibition” value does the source give for `CC1(C)NC(=O)N(CC(=O)OCC(=O)c2ccc(Cl)s2)C1=O` here?
A: inactive: -4.56%

Q: With `O=C(N/N=C/c1ccc([N+](=O)[O-])s1)c1ccncc1` as the molecule, how does the “activity change, negative = inhibition” value read?
A: inactive: -6.76%

Q: How did the Potency turn out when `CCc1nnc(NS(=O)(=O)c2ccc(NC(=O)/C=C/c3ccc(OC)cc3OC)cc2)s1` was run?
A: inconclusive: 50.1 µM [inhibitor, partial curve]

Q: For `COc1ccc2nc(C)cc(Nc3ccc(N4CCOCC4)cc3)c2c1`, which Potency is on record?
A: inconclusive: 16.8 µM [inhibitor, partial curve]

Q: How did the Potency turn out when `COC(=O)N/N=C/c1cn(Cc2ccccc2Cl)c2ccccc12` was run?
A: inconclusive: 39.8 µM [inhibitor, single point]

Q: Which Potency does the source give for `COc1cc(/C=C2\SC(=O)N(c3cccc(Cl)c3)C2=O)cc([N+](=O)[O-])c1O` here?
A: active: 50.1 µM

Q: With `O=C(NCc1ccccc1)C1=C[C@H](c2csc3ccccc23)C[C@H](OCCCCO)O1` as the molecule, how does the “activity change, negative = inhibition” value read?
A: inactive: 6.54%

Q: How did the Potency turn out when `Cc1cc(OCCN2CCOCC2)ccc1[N+](=O)[O-]` was run?
A: inconclusive: 15.8 µM [inhibitor, full curve, poor fit]

Q: Which Potency does the source give for `O=C(CSc1ccc(-c2nc3ccccc3[nH]2)cn1)N1CCN(C(=O)c2ccco2)CC1` here?
A: inconclusive: 44.7 µM [inhibitor, partial curve]

Q: For `COc1ccc(S(=O)(=O)N2CCCOC2CNC(=O)C(=O)NCc2ccncc2)cc1` (configuration not stated), which “activity change, negative = inhibition” value is on record?
A: inactive: 0.753%

Q: How did the Potency turn out when `O=C(Cc1ccccc1)Nc1ccc(Cl)cn1` was run?
A: inconclusive: 10 µM [inhibitor, full curve, poor fit]

Q: How did the Potency turn out when `COc1cc(/C=C2/SC(=S)N(CC3CCCO3)C2=O)ccc1O` (configuration not stated) was run?
A: active: 79.4 µM

Q: `Nc1ccc(C(=O)O)cc1[N+](=O)[O-]` was tested. Which “activity change, negative = inhibition” value did it give?
A: inactive: -0.705%

Q: Which “activity change, negative = inhibition” value does the source give for `O=C(O)c1ccc(CSc2nc(-c3ccc(Cl)cc3)cc(C(F)(F)F)n2)cc1` here?
A: inactive: -30.8%

Q: Which Potency does the source give for `COc1cccc(N=c2oc3ccc(OC)cc3cc2-c2nc3ccccc3[nH]2)c1` here?
A: inconclusive: 15 µM [inhibitor, partial curve]
